Experimental data from publication PMC5008907.
These are yes or no findings as the source states them, for the method shown. In cells and extracts the contact can be indirect. Some entries that bind do so weakly or less than the wild type.

Sequences of proteins named here, by UniProt entry; tags and fusion partners are left off.
UniProt P51140: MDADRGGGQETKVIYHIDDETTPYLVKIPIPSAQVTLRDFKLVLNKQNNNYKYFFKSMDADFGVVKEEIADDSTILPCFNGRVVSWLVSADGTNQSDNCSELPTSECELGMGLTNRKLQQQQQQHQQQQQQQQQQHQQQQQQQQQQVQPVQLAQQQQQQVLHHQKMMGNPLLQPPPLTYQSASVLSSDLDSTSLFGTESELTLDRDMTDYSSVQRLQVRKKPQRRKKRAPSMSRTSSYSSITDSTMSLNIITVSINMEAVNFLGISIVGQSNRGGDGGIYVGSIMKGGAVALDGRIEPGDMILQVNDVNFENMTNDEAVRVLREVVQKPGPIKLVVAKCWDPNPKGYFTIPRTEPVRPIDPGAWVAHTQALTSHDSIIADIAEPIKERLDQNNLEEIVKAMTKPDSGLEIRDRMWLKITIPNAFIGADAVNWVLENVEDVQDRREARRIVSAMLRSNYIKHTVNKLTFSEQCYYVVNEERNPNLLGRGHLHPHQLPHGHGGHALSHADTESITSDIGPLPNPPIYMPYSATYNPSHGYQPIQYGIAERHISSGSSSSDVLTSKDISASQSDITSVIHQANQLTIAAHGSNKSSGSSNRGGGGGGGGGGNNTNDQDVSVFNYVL

What was measured:
[1] = target: Myc-tagged Dishevelled (Dsh-Myc) (D. melanogaster) (UniProt P51140); assay: co-IP; S2 cell lysates in NP-40 buffer (1% NP-40, 150 mM NaCl, 50 mM Tris-Cl, pH 8); agarose anti-Myc or anti-HA; Dsh-Myc transfected, Dlg1 endogenous or transfected as HA-Dlg1
[2] = target: GFP-tagged Dishevelled (Dsh-GFP) expressed under the dsh promoter (D. melanogaster) (UniProt P51140); assay: co-IP; lysates of third instar wing imaginal discs expressing dsh-gfp under the dsh promoter, NP-40 buffer; agarose anti-GFP

B1: Discs large 1 (Dlg1), endogenous (protein, UniProt P31007 1-970)
chain: MPVKKQEAHRALELLEDYHARLSEPQDRALRIAIERVIRIFKSRLFQALLDIQEFYELTLLDDSKSIQQKTAETLQIATKWEKDGQAVKIADFIKSSNLNRNCAYEFNNDASSNQTNQSALNQNPIANNVSAQAQAEALSRTFKSELEEILNQRMRIESDTENAKEPTVEQQQKQQQAQQRSSRSPQQQNPQQQQGSKSRSGSQTVNGDDSWLYEDIQLERGNSGLGFSIAGGTDNPHIGTDTSIYITKLISGGAAAADGRLSINDIIVSVNDVSVVDVPHASAVDALKKAGNVVKLHVKRKRGTATTPAAGSAAGDARDSAASGPKVIEIDLVKGGKGLGFSIAGGIGNQHIPGDNGIYVTKLMDGGAAQVDGRLSIGDKLIAVRTNGSEKNLENVTHELAVATLKSITDKVTLIIGKTQHLTTSASGGGGGGLSSGQQLSQSQSQLATSQSQSQVHQQQHATPMVNSQSTEPGSRYASTNVLAAVPPGTPRAVSTEDITREPRTITIQKGPQGLGFNIVGGEDGQGIYVSFILAGGPADLGSELKRGDQLLSVNNVNLTHATHEEAAQALKTSGGVVTLLAQYRPEEYNRFEARIQELKQQAALGAGGSGTLLRTTQKRSLYVRALFDYDPNRDDGLPSRGLPFKHGDILHVTNASDDEWWQARRVLGDNEDEQIGIVPSKRRWERKMRARDRSVKFQGHAAANNNLDKQSTLDRKKKNFTFSRKFPFMKSRDEKNEDGSDQEPFMLCYTQDDANAEGASEENVLSYEAVQRLSINYTRPVIILGPLKDRINDDLISEYPDKFGSCVPHTTRPKREYEVDGRDYHFVSSREQMERDIQNHLFIEAGQYNDNLYGTSVASVREVAEKGKHCILDVSGNAIKRLQVAQLYPVAVFIKPKSVDSVMEMNRRMTEEQAKKTYERAIKMEQEFGEYFTGVVQGDTIEEIYSKVKSMIWSQSGPTIWVPSKESL
- binding [1]: binds
- binding [2]: binds
